# Test results reported in US11154589B2, “Antimicrobial composition combinations comprising star shaped peptide polymers” (The University of Melbourne, priority 2016, dated 2021).
# For at least one compound, name, drawing or mass did not settle the structure.
# How the values were obtained:
# [1] = test system: Pseudomonas aeruginosa (P. aeruginosa, ATCC 47085); assay: S16-antibiotic co-administration, synergy by Bliss Independence and HSA models; type: cell-based
# Protocol: (§1) The 96-well plate was then incubated at 37° C. for 1.5 or 3 h. For each well, microbial solution was diluted with saline (0.9% NaCl solution) using an appropriate dilution factor and placed on a LB agar plate (LB broth containing 15 g/L Oxoid Blood Agar Base No. 2). For E. coli, K. pneumoniae, and A. Baumannii (ATCC 19606 and FADDI-AB156), the agar plates were incubated overnight at room temperature, and then at 37° C. with aeration for 2 h. For P. Aeruginosa (ATCC 47085 and FADDI-PA067), the agar plates were incubated at 37° C. with aeration. The number of colony-forming units (CFU) was counted and expressed as CFU/mL. Positive controls consisting of cells without any treatment were used. […] A minimum of two independent experiments (biological replicates) of the assay were conducted and three technical replicates were used in each experiment. Data is expressed as mean±standard deviation (SD) and analysed using student's t-test.
# (§2) The Bliss Independence and HSA models were used to calculate drug synergism. […] Biotechnol. 31, 160-165 (2013). With the Bliss Independence model, synergism was calculated using the formula, BICAB=A+B−AB (1), where A and B are the effects of the two drugs in isolation and BICAB is the combined effect of the two drugs as predicted by the Bliss Independence model. […] In the HSA model, if CAB is greater than the greater of A and B, CAB>max(A, B), synergy is observed. The quantitative effect of the compounds when administered alone (i.e., A and B) or in combination (i.e., CAB) was defined as the fractional reduction of the population, R=1−CFUt/CFU0, where CFUt is the CFU/mL measured after treatment, and CFU0 is the CFU/mL measured before treatment.
# [2] = test system: CMDR P. aeruginosa (FADDI-PA067); assay: as above; type: cell-based, Pseudomonas aeruginosa
# Protocol: as §1, §2
# [3] = test system: Acinetobacter baumannii (A. baumannii, ATCC 19606); assay: as above; type: cell-based
# Protocol: as §1, §2
# [4] = test system: CMDR A. baumannii (FADDI-AB156); assay: as above; type: cell-based, Acinetobacter baumannii
# Protocol: as §1, §2
# [5] = test system: CMDR A. baumannii (FADDI-AB156); assay: Antibiogram of CMDR A. baumannii (MIC); type: cell-based, Acinetobacter baumannii; details: interpreted by CLSI resistant breakpoints
# [6] = test system: CMDR A. baumannii (FADDI-AB156); assay: Mouse peritonitis model, CFU in blood; type: in vivo, Acinetobacter baumannii; details: mice, i.p.; imipenem 40 mg/kg alone; blood at 16 h
# [7] = antibiotic in combination with S16, 3 h, Bliss Independence model
# [8] = antibiotic in combination with S16, 3 h, Highest Single Agent model
SMILES,"Interaction with S16 as evaluated by the Bliss Independence and HSA models (in words) ([1]; P. aeruginosa wild-type, 3 h time point)","Antimicrobial activity on co-administration with S16 compared to compounds alone (log change in CFU/mL) ([1]; P. aeruginosa wild-type, all compounds at MBC50, t=3 h)","Synergistic? (Yes/No) Bliss* ([1]; antibiotic in combination with S16, P. aeruginosa, 3 h, Bliss Independence model)","Synergistic? (Yes/No) HAS* ([1]; antibiotic in combination with S16, P. aeruginosa, 3 h, Highest Single Agent model)",Interaction with S16 as evaluated by the Bliss Independence and HSA models (in words) ([2]; 3 h time point),"Antimicrobial activity on co-administration with S16 compared to compounds alone (log change in CFU/mL) ([2]; all compounds at MBC50, t=3 h)","Synergistic? (Yes/No) Bliss* [2, 7]","Synergistic? (Yes/No) HAS* [2, 8]","Interaction with S16 as evaluated by the Bliss Independence and HSA models (in words) ([3]; A. baumannii wild-type, 3 h time point)","Antimicrobial activity on co-administration with S16 compared to compounds alone (log change in CFU/mL) ([3]; A. baumannii wild-type, all compounds at MBC50, t=3 h)","Synergistic? (Yes/No) Bliss* ([3]; antibiotic in combination with S16, A. baumannii, 3 h, Bliss Independence model)","Synergistic? (Yes/No) HAS* ([3]; antibiotic in combination with S16, A. baumannii, 3 h, Highest Single Agent model)",Interaction with S16 as evaluated by the Bliss Independence and HSA models (in words) ([4]; 3 h time point),"Antimicrobial activity on co-administration with S16 compared to compounds alone (log change in CFU/mL) ([4]; all compounds at MBC50, t=3 h)","Synergistic? (Yes/No) Bliss* [4, 7]","Synergistic? (Yes/No) HAS* [4, 8]",Susceptibility [5],"CFU in blood, difference from the mock-treated group [6]"
"C[C@H]1c2cccc(O)c2C(=O)C2=C(O)[C@]3(O)C(=O)C(C(N)=O)=C(O)[C@@H](N(C)C)[C@@H]3[C@@H](O)[C@@H]21 [Dox, doxycycline]",synergistic,Increased efficacy,Yes,Yes,synergistic,Enhanced antimicrobial activity,Yes,Yes,,,,,,,,,,
"C[C@@H](O)[C@H]1C(=O)N2C(C(=O)O)=C(SCCN=CN)C[C@H]12 [Imi, imipenem]",,,,,,,,,synergistic,Increased efficacy,Yes,Yes,synergistic,Enhanced antimicrobial activity,Yes,Yes,Resistant,did not show any significant difference
